Measurements taken from the supplement of paper PMC12889115.
This is one part of the list. Values are raw readings; no control value is given beside them.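 In the initial screen, polymyxin B was used at a concentration that permeabilizes Salmonella's outer membrane but not its inner membrane. Maximum growth was set by DMSO wells with or without polymyxin B. Since plates varied, data were ranked per plate, and compounds giving the lowest OD600 advanced as hits.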

System: Salmonella enterica serovar Typhimurium SL1344
Assay: bacterial growth OD600 after 18 h with compound and polymyxin B; higher = more bacterial growth (less inhibition)
Settings: 50 µM, Mueller-Hinton broth

O=C(c1ccco1)N1CCC(C2CCN(Cc3cccnc3)CC2)C1 (centres undefined)
bacterial growth OD600 (polymyxin B 0.75 µg/mL): 0.973

Cc1cccc2nc(C(=O)N(C)C3CCCN(CCc4ccccc4)C3)cn12 (centres undefined)
bacterial growth OD600 (polymyxin B 1 µg/mL): 0.83

COC(=O)C1CCCCN1Cc1nc(-c2ccc(OC)c(C)c2)oc1C (centres undefined)
bacterial growth OD600 (polymyxin B 1 µg/mL): 0.835

COc1ccccc1OCC(=O)NC1CCCc2c1cnn2-c1cccc(C)c1C (centres undefined)
bacterial growth OD600 (polymyxin B 1 µg/mL): 0.702

COc1cccc(CN2CCCC3(CCN(C(=O)CCC(C)C)C3)C2=O)c1OC (centres undefined)
bacterial growth OD600 (polymyxin B 1 µg/mL): 0.76

COc1ccc(CN2CCC(OC)CC2)cc1OCC(O)CN1CCCCC1 (centres undefined)
bacterial growth OD600 (polymyxin B 1 µg/mL): 1.08

O=C(CN1CCCCC1)NC1CCCc2c1cnn2-c1cc(F)cc(F)c1 (centres undefined)
bacterial growth OD600 (polymyxin B 1 µg/mL): 0.987

CO[C@H]1[C@H](NC(=O)COc2ccccc2)c2ccccc2C12CCN(C(=O)c1ccc(C)c(C)c1)CC2
bacterial growth OD600 (polymyxin B 0.75 µg/mL): 0.014

CN(Cc1ccno1)CC1(O)CCCN(CC2CC2)C1=O (centres undefined)
bacterial growth OD600 (polymyxin B 1 µg/mL): 0.924

Cc1ccccc1CN1CCC(C2CCN(c3ncccn3)CC2)C1 (centres undefined)
bacterial growth OD600 (polymyxin B 0.75 µg/mL): 0.758

Cc1nonc1CN(C)C(=O)c1csc2nc(-c3ccc(C(F)(F)F)cc3)cn12
bacterial growth OD600 (polymyxin B 1 µg/mL): 0.002

Cc1nc(N2CCC(C(=O)NCCc3ccccc3Cl)CC2)nc2cc(S(C)(=O)=O)ccc12
bacterial growth OD600 (polymyxin B 0.75 µg/mL): 0.78

COCC(=O)Nc1cc(C(=O)N2CCCCC2c2nccn2C)c2c(c1)nc(C1CCC1)n2C (centres undefined)
bacterial growth OD600 (polymyxin B 0.75 µg/mL): 0.903

OCCOc1ccccc1CN1CC[C@@H](N2CCCCCC2)[C@H](O)C1
bacterial growth OD600 (polymyxin B 1 µg/mL): 0.949

CC(C)c1cc(CN2CCC(N3CCC(C(=O)NCc4ccccn4)CC3)CC2)n[nH]1
bacterial growth OD600 (polymyxin B 1 µg/mL): 1.07

C[C@@H]1CN(C2(C(=O)N(C)Cc3nccs3)Cc3ccccc3C2)C[C@H](C)O1
bacterial growth OD600 (polymyxin B 0.75 µg/mL): 0.758

COc1ccccc1CNC(=O)c1c(OC)cc(=O)n2c1CCN(Cc1ccc(F)cc1)CC2
bacterial growth OD600 (polymyxin B 0.75 µg/mL): 0.813

CCOC(=O)C1(CCOC)CCN(Cc2cnn(-c3cccc(Cl)c3)c2)CC1
bacterial growth OD600 (polymyxin B 1 µg/mL): 0.838

COCCn1cnc2cc(NC(=O)C3CCCCC3)cc(C(=O)NCCCN3CCCC3=O)c21
bacterial growth OD600 (polymyxin B 0.75 µg/mL): 0.975
